The other results are listed elsewhere or left out.
What was measured:
Assay in all cases: log2 fold change, soluble protein after heating vs DMSO (PISA); higher = thermal stabilisation; K562 cells, 10 uM, 30 min; active = over 0.2 and 3.5 SD of the protein, either way, in both replicates (recomputed)
[1] = compound: CS(=O)(=O)c1ccc(-c2cnc(N)c(C(=O)Nc3ccccc3)n2)cc1
Procedure, shortened: (§1)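 K562 cells at 2×10^6 cells/mL were treated for 30 min with 10 μM compound, and aliquots were heated for 3 min over 48°C-58°C before pooling. Extraction used PBS with 0.5% NP-40 at 4°C, and soluble protein was the supernatant after 21,000xg for 90 min, measured by TMTpro 16plex LC-MS/MS with channel sums equalised. Thermal stability values, relative to control samples and from duplicates, are log2 fold changes.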

Amino acid sequences for entries named in this document (tags omitted). A change or cut given only in a name is not applied to a line headed by its entry.
UniProt Q10471: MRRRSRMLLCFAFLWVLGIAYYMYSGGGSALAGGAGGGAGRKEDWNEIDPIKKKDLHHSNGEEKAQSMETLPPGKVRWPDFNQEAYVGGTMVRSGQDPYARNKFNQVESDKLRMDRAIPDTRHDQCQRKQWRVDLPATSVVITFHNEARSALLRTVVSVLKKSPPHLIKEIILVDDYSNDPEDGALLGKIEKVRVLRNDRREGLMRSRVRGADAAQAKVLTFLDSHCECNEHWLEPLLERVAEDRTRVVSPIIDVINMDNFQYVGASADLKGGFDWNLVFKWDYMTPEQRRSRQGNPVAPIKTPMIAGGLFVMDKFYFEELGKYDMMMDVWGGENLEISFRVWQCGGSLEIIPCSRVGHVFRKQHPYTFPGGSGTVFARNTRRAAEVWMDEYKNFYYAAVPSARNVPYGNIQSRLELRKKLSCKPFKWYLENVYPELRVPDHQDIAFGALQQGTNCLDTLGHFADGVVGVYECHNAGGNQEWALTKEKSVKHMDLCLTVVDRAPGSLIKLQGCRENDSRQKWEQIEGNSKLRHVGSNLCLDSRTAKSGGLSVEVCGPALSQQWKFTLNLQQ
UniProt Q92538, whole entry, looked up: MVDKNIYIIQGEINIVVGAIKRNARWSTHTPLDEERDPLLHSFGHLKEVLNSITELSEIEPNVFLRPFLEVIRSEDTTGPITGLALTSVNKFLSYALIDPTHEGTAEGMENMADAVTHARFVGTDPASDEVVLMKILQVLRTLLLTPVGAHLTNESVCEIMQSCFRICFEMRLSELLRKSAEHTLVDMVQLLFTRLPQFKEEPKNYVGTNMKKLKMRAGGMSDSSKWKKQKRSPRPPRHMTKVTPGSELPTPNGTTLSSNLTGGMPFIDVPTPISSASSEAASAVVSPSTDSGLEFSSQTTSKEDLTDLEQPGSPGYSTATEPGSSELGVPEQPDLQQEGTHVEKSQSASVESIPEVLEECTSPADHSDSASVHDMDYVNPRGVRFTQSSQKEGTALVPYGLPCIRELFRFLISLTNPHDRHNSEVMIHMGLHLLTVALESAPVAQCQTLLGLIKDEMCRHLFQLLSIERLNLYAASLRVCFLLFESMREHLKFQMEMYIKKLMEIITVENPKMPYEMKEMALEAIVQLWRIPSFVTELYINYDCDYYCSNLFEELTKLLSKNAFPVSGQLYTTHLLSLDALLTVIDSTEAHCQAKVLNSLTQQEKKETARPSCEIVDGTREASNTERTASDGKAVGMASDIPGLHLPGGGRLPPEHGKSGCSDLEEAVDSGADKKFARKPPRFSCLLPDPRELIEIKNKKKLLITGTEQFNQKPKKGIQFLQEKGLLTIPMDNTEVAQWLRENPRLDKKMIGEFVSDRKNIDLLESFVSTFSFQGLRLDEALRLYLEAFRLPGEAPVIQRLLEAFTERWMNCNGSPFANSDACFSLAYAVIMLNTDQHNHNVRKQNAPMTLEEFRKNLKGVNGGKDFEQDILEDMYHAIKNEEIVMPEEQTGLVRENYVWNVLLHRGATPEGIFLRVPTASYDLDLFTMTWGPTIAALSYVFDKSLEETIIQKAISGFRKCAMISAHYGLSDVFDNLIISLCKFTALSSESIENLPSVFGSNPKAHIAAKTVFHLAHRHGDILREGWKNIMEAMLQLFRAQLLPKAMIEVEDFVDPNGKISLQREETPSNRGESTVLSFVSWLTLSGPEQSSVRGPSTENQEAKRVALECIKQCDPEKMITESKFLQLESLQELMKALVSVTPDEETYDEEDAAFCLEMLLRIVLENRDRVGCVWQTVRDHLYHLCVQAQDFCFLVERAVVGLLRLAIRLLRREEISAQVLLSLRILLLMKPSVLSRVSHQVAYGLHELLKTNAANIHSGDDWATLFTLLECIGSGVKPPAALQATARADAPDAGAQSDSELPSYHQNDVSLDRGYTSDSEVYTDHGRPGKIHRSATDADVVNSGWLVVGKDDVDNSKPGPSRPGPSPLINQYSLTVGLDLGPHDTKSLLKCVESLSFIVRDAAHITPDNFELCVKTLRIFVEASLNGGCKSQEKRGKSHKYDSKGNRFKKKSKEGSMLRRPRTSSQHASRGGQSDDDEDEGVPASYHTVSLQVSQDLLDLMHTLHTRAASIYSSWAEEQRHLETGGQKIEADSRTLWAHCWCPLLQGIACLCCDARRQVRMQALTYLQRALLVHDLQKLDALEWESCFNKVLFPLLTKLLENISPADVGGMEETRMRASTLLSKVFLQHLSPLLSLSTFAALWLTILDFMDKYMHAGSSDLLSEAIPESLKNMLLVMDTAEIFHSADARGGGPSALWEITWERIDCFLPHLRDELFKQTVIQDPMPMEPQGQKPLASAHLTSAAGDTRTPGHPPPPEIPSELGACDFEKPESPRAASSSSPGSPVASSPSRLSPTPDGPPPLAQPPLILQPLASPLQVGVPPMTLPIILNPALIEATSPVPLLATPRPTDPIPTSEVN
UniProt Q8N2G8: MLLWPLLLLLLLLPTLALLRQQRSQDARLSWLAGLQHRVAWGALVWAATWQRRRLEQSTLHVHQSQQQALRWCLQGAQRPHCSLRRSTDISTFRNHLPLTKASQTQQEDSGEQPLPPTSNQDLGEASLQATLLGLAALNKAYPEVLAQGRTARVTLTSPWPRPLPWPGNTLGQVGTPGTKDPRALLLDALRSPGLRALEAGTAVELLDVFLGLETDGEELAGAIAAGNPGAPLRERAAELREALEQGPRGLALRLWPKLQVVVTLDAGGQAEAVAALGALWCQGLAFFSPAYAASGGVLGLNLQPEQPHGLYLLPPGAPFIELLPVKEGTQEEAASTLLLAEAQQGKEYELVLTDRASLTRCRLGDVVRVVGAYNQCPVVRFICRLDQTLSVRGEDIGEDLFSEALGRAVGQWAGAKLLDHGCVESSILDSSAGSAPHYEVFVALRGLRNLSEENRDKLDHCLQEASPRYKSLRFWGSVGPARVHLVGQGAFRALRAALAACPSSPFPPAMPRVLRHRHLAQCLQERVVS
UniProt P48507: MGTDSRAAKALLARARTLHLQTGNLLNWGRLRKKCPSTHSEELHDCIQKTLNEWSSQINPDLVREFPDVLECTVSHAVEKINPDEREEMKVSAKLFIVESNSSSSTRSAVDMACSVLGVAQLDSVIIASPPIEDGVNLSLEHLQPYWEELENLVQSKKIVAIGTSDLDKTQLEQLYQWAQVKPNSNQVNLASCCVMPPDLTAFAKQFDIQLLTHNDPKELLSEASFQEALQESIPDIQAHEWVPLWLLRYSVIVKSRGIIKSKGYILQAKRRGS
UniProt Q96I24: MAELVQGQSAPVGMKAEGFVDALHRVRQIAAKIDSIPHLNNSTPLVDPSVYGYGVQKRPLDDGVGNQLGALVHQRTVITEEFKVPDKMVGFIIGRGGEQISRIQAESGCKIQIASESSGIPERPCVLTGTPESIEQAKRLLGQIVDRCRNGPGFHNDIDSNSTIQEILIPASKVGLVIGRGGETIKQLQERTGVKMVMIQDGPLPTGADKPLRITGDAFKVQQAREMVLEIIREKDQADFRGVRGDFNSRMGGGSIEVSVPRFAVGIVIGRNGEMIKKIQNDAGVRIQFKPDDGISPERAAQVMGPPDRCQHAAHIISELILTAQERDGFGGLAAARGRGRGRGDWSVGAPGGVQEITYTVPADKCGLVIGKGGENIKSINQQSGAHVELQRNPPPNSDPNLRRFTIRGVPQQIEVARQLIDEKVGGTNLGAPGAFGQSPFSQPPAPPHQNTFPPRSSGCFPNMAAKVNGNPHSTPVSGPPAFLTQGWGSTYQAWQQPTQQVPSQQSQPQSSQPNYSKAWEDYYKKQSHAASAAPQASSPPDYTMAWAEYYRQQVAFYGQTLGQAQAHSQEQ
UniProt Q9UJ14: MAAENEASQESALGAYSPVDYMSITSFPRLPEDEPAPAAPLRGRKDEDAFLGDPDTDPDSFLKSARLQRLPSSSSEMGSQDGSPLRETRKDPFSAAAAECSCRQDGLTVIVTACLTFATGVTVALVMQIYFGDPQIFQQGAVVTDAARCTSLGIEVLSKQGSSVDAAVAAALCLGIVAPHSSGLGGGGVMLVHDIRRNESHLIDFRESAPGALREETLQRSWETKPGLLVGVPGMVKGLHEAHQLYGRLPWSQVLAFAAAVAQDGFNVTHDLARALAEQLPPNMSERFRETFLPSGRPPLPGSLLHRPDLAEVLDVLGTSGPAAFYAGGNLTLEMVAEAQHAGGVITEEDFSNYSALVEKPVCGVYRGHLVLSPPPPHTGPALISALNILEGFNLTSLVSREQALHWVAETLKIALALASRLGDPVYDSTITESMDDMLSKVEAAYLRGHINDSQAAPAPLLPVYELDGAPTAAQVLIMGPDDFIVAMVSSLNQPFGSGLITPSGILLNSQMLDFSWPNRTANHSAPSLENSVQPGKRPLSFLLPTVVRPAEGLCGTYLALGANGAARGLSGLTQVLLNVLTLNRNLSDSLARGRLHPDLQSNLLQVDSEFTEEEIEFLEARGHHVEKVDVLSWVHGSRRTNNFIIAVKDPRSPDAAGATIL
UniProt Q8NCW6: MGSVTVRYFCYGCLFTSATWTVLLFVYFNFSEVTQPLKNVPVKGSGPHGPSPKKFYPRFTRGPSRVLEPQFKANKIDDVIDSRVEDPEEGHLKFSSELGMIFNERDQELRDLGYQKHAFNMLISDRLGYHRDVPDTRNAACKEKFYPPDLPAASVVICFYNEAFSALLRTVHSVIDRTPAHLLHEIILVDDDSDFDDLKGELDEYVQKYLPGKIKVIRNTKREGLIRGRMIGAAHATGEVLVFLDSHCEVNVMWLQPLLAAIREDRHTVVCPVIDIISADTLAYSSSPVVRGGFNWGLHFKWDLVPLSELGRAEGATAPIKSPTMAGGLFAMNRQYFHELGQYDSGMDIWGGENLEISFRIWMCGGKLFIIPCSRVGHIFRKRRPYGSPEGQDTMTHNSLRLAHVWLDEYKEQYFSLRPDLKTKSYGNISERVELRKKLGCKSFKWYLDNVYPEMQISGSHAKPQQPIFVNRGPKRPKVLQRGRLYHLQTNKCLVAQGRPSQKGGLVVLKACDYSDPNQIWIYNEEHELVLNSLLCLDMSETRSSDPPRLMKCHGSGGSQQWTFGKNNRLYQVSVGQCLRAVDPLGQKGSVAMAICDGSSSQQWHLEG
UniProt Q9BTY2: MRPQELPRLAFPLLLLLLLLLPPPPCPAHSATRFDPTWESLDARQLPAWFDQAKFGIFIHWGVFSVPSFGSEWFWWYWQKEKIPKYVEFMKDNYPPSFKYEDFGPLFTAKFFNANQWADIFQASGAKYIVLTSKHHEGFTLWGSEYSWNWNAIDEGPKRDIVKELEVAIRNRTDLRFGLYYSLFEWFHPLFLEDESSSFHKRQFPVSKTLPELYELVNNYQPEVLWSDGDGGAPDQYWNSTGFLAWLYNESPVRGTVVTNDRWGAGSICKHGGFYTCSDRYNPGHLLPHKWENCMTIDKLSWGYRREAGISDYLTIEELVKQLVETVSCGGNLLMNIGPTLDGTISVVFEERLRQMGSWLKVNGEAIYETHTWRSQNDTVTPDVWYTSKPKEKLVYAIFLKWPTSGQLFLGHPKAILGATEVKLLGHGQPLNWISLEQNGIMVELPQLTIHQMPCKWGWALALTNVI
UniProt Q8N9F7: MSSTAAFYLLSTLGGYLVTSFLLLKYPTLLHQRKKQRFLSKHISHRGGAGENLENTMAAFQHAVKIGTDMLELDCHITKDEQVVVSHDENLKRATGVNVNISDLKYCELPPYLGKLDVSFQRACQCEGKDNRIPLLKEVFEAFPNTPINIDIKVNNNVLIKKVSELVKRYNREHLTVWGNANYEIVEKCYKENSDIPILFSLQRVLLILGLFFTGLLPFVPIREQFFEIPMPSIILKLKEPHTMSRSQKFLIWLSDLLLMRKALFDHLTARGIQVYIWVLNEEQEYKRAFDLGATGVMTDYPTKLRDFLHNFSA
UniProt Q8WXD5: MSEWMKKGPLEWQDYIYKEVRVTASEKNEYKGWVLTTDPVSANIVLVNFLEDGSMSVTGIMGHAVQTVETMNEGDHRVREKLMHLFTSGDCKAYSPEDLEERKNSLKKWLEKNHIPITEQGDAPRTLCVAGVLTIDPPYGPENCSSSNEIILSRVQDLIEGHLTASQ

crizotinib = compound: C[C@@H](Oc1cc(-c2cnn(C3CCNCC3)c2)cnc1N)c1c(Cl)ccc(F)c1Cl [crizotinib]
Procedure, shortened: as §1

[2] = compound: C[C@@H]1COCCN1C2=NC(=NC(=C2)C3(CC3)S(=O)(=O)C)C4=C5C=CNC5=CC=C4
Procedure, shortened: as §1

[3] = compound: C[C@H](C1=CC=C(C=C1)C(=O)NC2=C3C=CNC3=NC=C2)N
Procedure, shortened: as §1

gandotinib = compound: Cc1cc(Nc2cc(CN3CCOCC3)c3nc(C)c(Cc4ccc(Cl)cc4F)n3n2)n[nH]1 [gandotinib]
Procedure, shortened: as §1

[4] = compound: Cc1cc(SCc2sc(-c3ccc(C(F)(F)F)cc3)nc2C)ccc1OCC(=O)O
Procedure, shortened: as §1

doramapimod = compound: Cc1ccc(-n2nc(C(C)(C)C)cc2NC(=O)Nc2ccc(OCCN3CCOCC3)c3ccccc23)cc1 [doramapimod]
Procedure, shortened: as §1

ispinesib = compound: Cc1ccc(C(=O)N(CCCN)[C@@H](c2nc3cc(Cl)ccc3c(=O)n2Cc2ccccc2)C(C)C)cc1 [ispinesib]
Procedure, shortened: as §1

bafetinib = compound: Cc1ccc(NC(=O)c2ccc(CN3CC[C@H](N(C)C)C3)c(C(F)(F)F)c2)cc1Nc1nccc(-c2cncnc2)n1 [bafetinib]
Procedure, shortened: as §1

[5] = compound: Cc1cccc(CC(=O)N2CCc3c2ccc(-c2cn(C)c4ncnc(N)c24)c3F)n1
Procedure, shortened: as §1

nilotinib = compound: Cc1cn(-c2cc(NC(=O)c3ccc(C)c(Nc4nccc(-c5cccnc5)n4)c3)cc(C(F)(F)F)c2)cn1 [nilotinib]
Procedure, shortened: as §1

[6] = compound: Cc1nc(Nc2n[nH]c3c2CN(C(=O)N[C@H](CN(C)C)c2ccccc2)C3(C)C)c2sccc2n1
Procedure, shortened: as §1

dasatinib = compound: Cc1nc(Nc2ncc(C(=O)Nc3c(C)cccc3Cl)s2)cc(N2CCN(CCO)CC2)n1 [dasatinib]
Procedure, shortened: as §1

[7] = compound: Cc1ncc(-c2ccnc(Nc3ccc(S(C)(=O)=O)cc3)n2)n1C(C)C
Procedure, shortened: as §1

[8] = compound: Cn1cc(-c2ccc3c(c2)CCN3C(=O)Cc2cccc(C(F)(F)F)c2)c2c(N)ncnc21
Procedure, shortened: as §1

[9] = compound: Cn1cc(-c2ccc3nnc(C(F)(F)c4ccc5ncccc5c4)n3n2)cn1
Procedure, shortened: as §1

tipifarnib = compound: Cn1cncc1[C@@](N)(c1ccc(Cl)cc1)c1ccc2c(c1)c(-c1cccc(Cl)c1)cc(=O)n2C [tipifarnib]
Procedure, shortened: as §1

mubritinib = compound: FC(F)(F)c1ccc(/C=C/c2nc(COc3ccc(CCCCn4ccnn4)cc3)co2)cc1 [mubritinib]
Procedure, shortened: as §1

duvelisib = compound: C[C@H](Nc1ncnc2nc[nH]c12)c1cc2cccc(Cl)c2c(=O)n1-c1ccccc1 [duvelisib]
Procedure, shortened: as §1

Row | Target | log2 fold change [1] | log2 fold change (crizotinib) | log2 fold change [2] | log2 fold change [3] | log2 fold change (gandotinib) | log2 fold change [4] | log2 fold change (doramapimod) | log2 fold change (ispinesib) | log2 fold change (bafetinib) | log2 fold change [5] | log2 fold change (nilotinib) | log2 fold change [6] | log2 fold change (dasatinib) | log2 fold change [7] | log2 fold change [8] | log2 fold change [9] | log2 fold change (tipifarnib) | log2 fold change (mubritinib) | log2 fold change (duvelisib)
1 | GALNT2 (UniProt Q10471) | inactive: 0.056 | inactive: -0.005 | inactive: 0.093 | inactive: -0.015 | inactive: -0.024 | inactive: 0.022 | inactive: -0.001 | inactive: 0.034 | inactive: -0.046 | inactive: 0.041 | inactive: -0.07 | inactive: -0.066 | inactive: -0.004 | inactive: 0.056 | inactive: 0.032 | inactive: -0.018 | inactive: 0.008 | inactive: 0.008 | 
2 | GBF1 (UniProt Q92538) | inactive: -0.032 | inactive: -0.131 | inactive: 0.023 | inactive: 0.08 | inactive: -0.197 | inactive: 0.041 | inactive: 0.059 | inactive: 0.012 | inactive: 0.014 | inactive: 0.081 | inactive: -0.117 | inactive: -0.109 | inactive: -0.113 | inactive: -0.001 | inactive: -0.079 | inactive: -0.049 | inactive: -0.15 | inactive: 0.093 | 
3 | FPGS (UniProt Q05932) | inactive: -0.057 | inactive: 0.326 | inactive: 0.055 | inactive: 0.024 | inactive: 0.054 | inactive: 0.101 | inactive: -0.004 | inactive: 0.029 | inactive: -0.078 | inactive: -0.014 |  |  | inactive: 0.194 |  | inactive: -0.133 | inactive: -0.169 | inactive: 0.127 | inactive: 0.113 | inactive: 0.164
4 | GDI1 (UniProt P31150) | inactive: 0.018 | inactive: 0.026 | inactive: 0.061 | inactive: -0.054 | inactive: -0.049 | inactive: -0.009 | inactive: -0.027 | inactive: 0.084 | inactive: 0.002 | inactive: 0.024 | inactive: 0.001 | inactive: 0.017 | inactive: -0.053 | inactive: -0.024 | inactive: 0.035 | inactive: 0.01 | inactive: -0.06 | inactive: 0.062 | 
5 | FNTB (UniProt P49356) | inactive: 0.104 | inactive: 0.054 | inactive: -0.035 | inactive: -0.137 | inactive: 0.169 | inactive: -0.043 | inactive: -0.012 | inactive: 0.109 | inactive: 0.028 | inactive: 0.015 | inactive: 0.028 | inactive: 0.177 | inactive: 0.22 | inactive: -0.056 | inactive: 0.196 | inactive: 0.251 | active: 0.757 | inactive: -0.103 | 
6 | GHDC (UniProt Q8N2G8) | inactive: 0.041 | inactive: -0.02 | inactive: 0.021 | inactive: -0.074 | inactive: 0.002 | inactive: -0.039 | inactive: -0.041 | inactive: -0.132 | inactive: -0.165 | inactive: 0.018 | inactive: 0.036 | inactive: -0.001 | inactive: 0.027 | inactive: -0.011 | inactive: 0.045 | inactive: 0.012 | inactive: 0.146 | inactive: 0.01 | 
7 | GCLM (UniProt P48507) | inactive: 0.058 | inactive: -0.003 | inactive: 0.042 | inactive: -0.019 | inactive: -0.15 | inactive: 0.06 | inactive: -0.072 | inactive: 0.076 | inactive: 0.016 | inactive: 0.072 | inactive: -0.101 | inactive: -0.015 | inactive: -0.095 | inactive: 0.019 | inactive: 0.042 | inactive: -0.051 | inactive: -0.133 | inactive: 0.023 | 
8 | GEMIN5 (UniProt Q8TEQ6) | inactive: -0.004 | inactive: -0.047 | inactive: 0.038 | inactive: 0.02 | inactive: -0.082 | inactive: 0.055 | inactive: -0.001 | inactive: -0.088 | inactive: 0.015 | inactive: 0.065 | inactive: -0.046 | active: -0.315 | inactive: -0.099 | inactive: -0.127 | inactive: 0.006 | inactive: -0.021 | inactive: -0.049 | inactive: 0.043 | 
9 | FUBP3 (UniProt Q96I24) | inactive: -0.076 | inactive: -0.046 | inactive: -0.083 | inactive: 0.065 | inactive: -0.106 | inactive: 0.013 | inactive: -0.025 | inactive: -0.049 | inactive: -0.035 | inactive: 0.009 | inactive: -0.051 | inactive: 0.035 | inactive: -0.024 | inactive: 0.167 | inactive: -0.059 | inactive: -0.045 | inactive: 0.014 | inactive: -0.052 | 
10 | GGT7 (UniProt Q9UJ14) | inactive: 0.035 | inactive: 0.013 | inactive: -0.128 | inactive: 0.013 | inactive: -0.03 | inactive: -0.091 | inactive: 0.023 | inactive: -0.032 | inactive: -0.081 | inactive: -0.038 | inactive: 0.026 | inactive: 0.015 | inactive: -0.02 | inactive: -0.03 | inactive: 0.063 | inactive: 0.018 | inactive: 0.001 | inactive: 0.021 | 
11 | GALNT11 (UniProt Q8NCW6) | inactive: 0.039 | inactive: 0.04 | inactive: 0.112 | inactive: 0.018 | inactive: 0.045 | inactive: -0.061 | inactive: 0.045 | inactive: -0.163 | inactive: -0.055 | inactive: -0.089 | inactive: -0.047 | inactive: -0.068 | inactive: -0.022 | inactive: 0.076 | inactive: 0.069 | inactive: -0.031 | inactive: 0.102 | inactive: 0.088 | 
12 | GALNT4 (UniProt Q8N4A0) | inactive: 0.047 | inactive: -0.068 | inactive: 0.156 | inactive: 0.017 | inactive: -0.153 | inactive: 0.036 | inactive: 0.013 | inactive: 0.04 | inactive: -0.042 | inactive: -0.042 | inactive: -0.049 | inactive: 0.006 | inactive: -0.021 | inactive: 0.042 | inactive: 0.079 | inactive: -0.005 | inactive: 0.038 | inactive: 0.035 | 
13 | GALNT10 (UniProt Q86SR1) | inactive: 0.023 | inactive: 0.065 | inactive: 0.057 | inactive: -0.137 | inactive: 0.124 | inactive: -0.057 | inactive: 0.054 |  | inactive: -0.124 | inactive: -0.041 | inactive: -0.075 | inactive: -0.033 | inactive: -0.013 | inactive: 0.155 | inactive: -0.117 |  | inactive: 0.089 | inactive: 0.048 | inactive: -0.094
14 | FUCA2 (UniProt Q9BTY2) | inactive: 0.021 | inactive: -0.002 | inactive: 0.017 | inactive: -0.05 | inactive: 0.041 | inactive: 0.014 | inactive: 0.058 | inactive: -0.001 | active: -0.809 | inactive: -0.022 | inactive: 0.032 | inactive: 0.001 | inactive: 0.022 | inactive: -0.009 | inactive: 0.012 | inactive: -0.019 | inactive: 0.077 | inactive: 0.013 | 
15 | FOSL1 (UniProt P15407) | inactive: -0.005 | inactive: -0.087 | inactive: -0.077 | inactive: 0.148 | inactive: 0.221 | inactive: 0.056 | inactive: 0.106 |  | inactive: -0.105 | inactive: -0.299 | inactive: 0.004 | inactive: 0.019 | inactive: 0.036 | inactive: 0.038 | inactive: -0.044 |  | inactive: 0.168 | inactive: -0.083 | inactive: -0.11
16 | GDPD1 (UniProt Q8N9F7) | inactive: 0.086 | inactive: 0.035 | inactive: 0.074 | inactive: -0.057 | inactive: 0.012 | inactive: -0.033 | inactive: 0.078 | active: 0.353 | inactive: 0.088 | inactive: -0.141 | inactive: 0.1 | inactive: 0.104 | inactive: 0.023 | inactive: -0.045 | inactive: 0.046 | inactive: -0.031 | inactive: 0.106 | inactive: 0.096 | 
17 | GATD1 (UniProt Q8NB37) | inactive: -0.026 | inactive: 0.023 | inactive: -0.256 | inactive: 0.012 | inactive: 0.052 | inactive: 0.033 | inactive: 0.163 | inactive: -0.005 | inactive: 0.008 | inactive: -0.021 | inactive: 0.059 | inactive: -0.016 | inactive: -0.011 | inactive: 0.119 | inactive: 0.046 | inactive: 0.015 | inactive: 0.029 | inactive: 0.035 | 
18 | GEMIN6 (UniProt Q8WXD5) | inactive: -0.076 | inactive: -0.055 | inactive: 0.097 | inactive: 0.091 | inactive: 0.034 | inactive: 0.034 | inactive: -0.016 | inactive: -0.017 | inactive: -0.011 | inactive: -0.042 | inactive: 0.004 | inactive: 0.015 | inactive: -0.024 | inactive: -0.022 | inactive: 0.018 | active: 0.306 | inactive: -0.002 | inactive: 0.067 | 

Some of the entries so far, in markdown.

| Row | Target | log2 fold change [1] | log2 fold change (crizotinib) | log2 fold change [2] | log2 fold change [3] | log2 fold change (gandotinib) | log2 fold change [4] | log2 fold change (doramapimod) | log2 fold change (ispinesib) | log2 fold change (bafetinib) | log2 fold change [5] | log2 fold change (nilotinib) | log2 fold change [6] | log2 fold change (dasatinib) | log2 fold change [7] | log2 fold change [8] | log2 fold change [9] | log2 fold change (tipifarnib) | log2 fold change (mubritinib) | log2 fold change (duvelisib) |
| --- | --- | --- | --- | --- | --- | --- | --- | --- | --- | --- | --- | --- | --- | --- | --- | --- | --- | --- | --- | --- |
| 9 | FUBP3 (UniProt Q96I24) | inactive: -0.076 | inactive: -0.046 | inactive: -0.083 | inactive: 0.065 | inactive: -0.106 | inactive: 0.013 | inactive: -0.025 | inactive: -0.049 | inactive: -0.035 | inactive: 0.009 | inactive: -0.051 | inactive: 0.035 | inactive: -0.024 | inactive: 0.167 | inactive: -0.059 | inactive: -0.045 | inactive: 0.014 | inactive: -0.052 |  |
| 11 | GALNT11 (UniProt Q8NCW6) | inactive: 0.039 | inactive: 0.04 | inactive: 0.112 | inactive: 0.018 | inactive: 0.045 | inactive: -0.061 | inactive: 0.045 | inactive: -0.163 | inactive: -0.055 | inactive: -0.089 | inactive: -0.047 | inactive: -0.068 | inactive: -0.022 | inactive: 0.076 | inactive: 0.069 | inactive: -0.031 | inactive: 0.102 | inactive: 0.088 |  |
